Patent publication US20190008955A1 (SORRENTO THERAPEUTICS, published 2019)
Results are given in words; binding and its absence hold for the method and conditions named. Some results given as binding are weak or reduced against the parent protein; the word gives no strength.

T1: human CXCR3 (human, UniProt P49682 1-368)
T1 sequence (looked up): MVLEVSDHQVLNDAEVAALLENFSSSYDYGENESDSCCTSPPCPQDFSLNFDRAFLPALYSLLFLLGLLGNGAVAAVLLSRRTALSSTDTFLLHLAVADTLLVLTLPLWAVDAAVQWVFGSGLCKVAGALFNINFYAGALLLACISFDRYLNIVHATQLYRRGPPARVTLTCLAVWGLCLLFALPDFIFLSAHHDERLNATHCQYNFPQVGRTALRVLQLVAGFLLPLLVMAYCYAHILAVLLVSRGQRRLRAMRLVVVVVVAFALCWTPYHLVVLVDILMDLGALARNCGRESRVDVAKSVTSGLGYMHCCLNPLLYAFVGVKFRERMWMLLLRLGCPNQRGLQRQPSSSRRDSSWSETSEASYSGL

B1: 32D12 (antibody, V domains shown)
VH: EVQLLESGGGLVQPGGSQRLSCAASGFTFSSYPMTWVRQAPGKGLEWVSAISDGGSGTYYADSVKGRFTISRDNSKNTLYLQMNSLRAEDTAIYYCARYKMGGSYRGLDDWGQGTLVTVSS
VL: LPVLTQPASVSGSPGQPITISCTGTSGNIGSYNYVSWYQQHPGKAPRLLIYDVSLRPSGISSHFSGSKSGNTASLTISGLQAEDEAEYFCLSWTSDKTYVFGSGTKLTVL
notes: Fully human IgG class
B2: H1 (antibody, V domains shown)
VH: EVQLLESGGGVVQPGRSLRLSCAASGFTFRYYGMHWVRQAPGKGLEWVAAIRNDGSNEYYADSVKGRFTISRDNSKNTLYLEMNSLRAEDTSVYHCARDGFYRGSPYYFDSWGQGTLVTVSS
VL: QAGLTQPPSVSAAPGQKVTISCSGSSSNIGNNYVSWYQQLPGTAPKLLIYDNKRRPSGMPDRFSGSKSGTSATLGITGLQTGDEADYYCGTWDSSLSAVVFGGGTKLTVL
B3: C4 (antibody, V domains shown)
VH: QVQLVQSGAEVKKPGSSVKVACKASGGTFSHSAISWVRQAPGQGLEWIGRTIPTLEMASYAQKFQGRVTISADKSTRTGYMELRDLRSEDTAVYYCSTQTPSYTDHWGQGTLVTVSS
VL: EIVLTQSPLSLPVTLGQPASISCNSSQSLLHRDGHTYLHWFQQRPGQSPRRLIYKVSNRDSGVPDKFSGSGSGTEFTLKISRVEAEDVGVYYCMQGTHWPLAFGGGTKLEIK
B4: 32B12 (antibody, V domains shown)
VH: EVQLVQSGGGLVKSGRSLRLSCTVSGFTFGNSAMSWFRQAPGKGLEWVSSISSSSSYIYYADSVKGRFTISRDNAKNSLYLQMNSLRAEDTAVYYCARDLSGRGYSYLNYWGQGTLVTVSS
VL: SYELTQPPSVSAAPGQKVTISCSGSSSNIGNSYVSWFQQFPGTAPKLVIYENNKRPSGIPDRFSGSKSGTSATLGITGLQTGDEADYYCGTWDSSLSGRVFGGGTKLTVL
notes: Described as a fully human antibody of an IgG class and detected with anti-human IgG (gamma-chain specific); also called anti-CXCR3 antibody 32B12; clone 32B12
B5: 3A3 (antibody, V domains shown)
VH: QVQLVQSGAEVKKPGSSVKVSCKASGGTFNRYAFSWVRQAPGQGPELMGRIMPMFDIASYAQKFQGRLTITADKSTSTAYMELSSLRSDDTAVYYCTQVSGDSDYWGPGTLVTVSS
VL: DIVMTQTPLSLPVTLGQPASISCRSSQSLVHNDGNTYLNWFHQRPGQSPRRLIYKVSNRDFGVPDRFSGSGSGTDFTLRISRVEAEDVGVYYCMQGSHWPLTFGGGTKVEIK
notes: Fully human IgG class
B6: 3A11 (antibody, V domains shown)
VH: QVQLVQSGGGLVKPGGSLRLSCAASGFTFTSSGMNWVRQAPGKGLEWVAYIFPNGKTLYPESVKGRFIITRDNAEKSLFLEMNNLRAEDMGVYYCAIDLNWGSGYWGQGTLVTVSS
VL: SYVLTQPPSVSKGLRQTATLTCTGNINNVGNVGATWLQQHQGHPPKLLSDRNNNRPSGISERFSASRSGNAASLTITGLQPEDEADYYCSAWDTSLGAWVFGGGTKLTVL
notes: Fully human IgG class
B7: 3C11 (antibody, V domains shown)
VH: EVQLVESGGGLVQPGGSLRLSCSASGFTFSSYAMHWVRQAPGKGLEYVSAISSNGGSTYYADSVKGRFTISRDNSKNTLYLQMSSLRAEDTAVYYCVKSIAAAGTQYYYYYMDVWGKGTTVTVSS
VL: DIQLTQSPSSLSASVGDRVTITCRASQGIGTYLAWFQQKPGKVPKPLIYAASTLQSGVPSRFSGSGSGADFTLTISSLQPEDVATYYCQKYNSVPQTFGQGTKVEIK
notes: Fully human IgG class

Tests used:
[1] = biological target: human CXCR3 (human) (UniProt P49682); assay: flow cytometry on CHO-CXCR3 cells against control CHO cells
[2] = biological target: T1, human CXCR3; assay: as above
[3] = biological target: human CXCR3 (human) (UniProt P49682); assay: flow cytometry on CHO-CXCR3 cells, binding over time after washing

Row | Binder | binding [1] | binding [2] | binding [3]
1 | B1 | binds | – | –
2 | B2 | – | binds | –
3 | B3 | – | binds | –
4 | B4 | binds | – | binds
5 | B5 | binds | – | –
6 | B6 | binds | – | –
7 | B7 | binds | – | –
